Laboratory results published in article PMC7037636, “Synthesis of New Series of 2-C-(β-D-glucopyranosyl)-Pyrimidines and Their Evaluation as Inhibitors of Some Glycoenzymes” (Molecules, 2020).

System: T1, bovine liver β-galactosidase
T1 construct: gene GLB1; commercial native enzyme from bovine liver (Sigma-Aldrich)
Assay: PNP-β-Gal hydrolysis, absorbance at […] nm
Type: biochemical, Bos taurus
Conditions: 1 mM PNP-β-Gal, citrate-phosphate buffer pH 7.3, 37 °C, 0.12 mg/mL enzyme

## COC(=O)c1c(-c2ccccc2)nc([C@@H]2O[C@H](CO)[C@@H](O)[C@H](O)[C@H]2O)[nH]c1=O [11g, Methyl 2-(β-D-glucopyranosyl)-4-phenyl-6-oxo-1,6-dihydropyrimidine-5-carboxylate]
3000 µM
  Inh.: 85%

## COC(=O)c1cnc([C@@H]2O[C@H](CO)[C@@H](O)[C@H](O)[C@H]2O)nc1 [18f, Methyl 2-(β-D-glucopyranosyl)-pyrimidine-5-carboxylate]
3800 µM
  Inh.: 50%

## N#Cc1c(N)nc([C@@H]2O[C@H](CO)[C@@H](O)[C@H](O)[C@H]2O)nc1-c1ccccc1 [11e, 4-Amino-2-(β-D-glucopyranosyl)-6-phenyl-pirimidine-5-carbonitrile]
3000 µM
  Inh.: 56%

## OC[C@H]1O[C@@H](c2ncc(-c3ccccc3)cn2)[C@H](O)[C@@H](O)[C@@H]1O [18e, 2-(β-D-Glucopyranosyl)-5-phenylpyrimidine]
3600 µM
  Inh.: 30%

## N#Cc1c(-c2ccccc2)nc([C@@H]2O[C@H](CO)[C@@H](O)[C@H](O)[C@H]2O)[nH]c1=O [11f, 2-(β-D-Glucopyranosyl)-4-phenyl-6-oxo-1,6-dihydropyrimidine-5-carbonitrile]
3600 µM
  Inh.: 40%

## CCOC(=O)c1cnc([C@@H]2O[C@H](CO)[C@@H](O)[C@H](O)[C@H]2O)nc1N [11b, Ethyl 4-amino-2-(β-D-glucopyranosyl)-pirimidine-5-carboxylate]
3600 µM
  Inh.: 40%
